The source of these data is ChEMBL document CHEMBL2029217, “Design, synthesis, and structure-activity relationships of novel spiro-piperidines as acetyl-CoA carboxylase inhibitors” (Bioorg Med Chem Lett, 2012).

Broadly, the logD is the decadic logarithm of the distribution of all forms, ionised or not, between an organic phase and buffer at a given pH. Low values mean a more hydrophilic compound, high ones a more lipophilic compound.

This data set can be described thus: Lipophilicity, log D of the compound at pH 7.4. The settings on record: buffer.

`CCNC(=O)Nc1sc2ccccc2c1C(=O)N1CCC(N2CCCC3(CC(=O)N(CC)C3=O)C2)CC1` (racemic) showed a logD of 2.82.
